Experiment: Soil pH change after application

With O=C(O)CC(O)(CC(=O)O)C(=O)O [citric acid] the “effects on soil pH compared with formic acid” value (FIGS. 4-6) was “less than formic acid”.

In the case of O=CO [formic acid], the “change of soil pH with application rate” value (Nettle sand and Riviera sand, FIG. 1) is reported as “decreased linearly”.

Source: patent publication US20120015809A1 (priority 2009, published 2012)
